For at least one entry, the source does not settle the construct or the ends of the probe. For some of these results: No signal at the amounts used counts as a negative. For some of these results: The comparison behind a weaker result is the experiment's own reference, which may not be listed here.
Key:
[1] = test system: MBP-BrpABI449 (Brassica parachinensis); experiment: EMSA; conditions: EMSA/Gel-Shift kit (Beyotime) per manufacturer; pH and temperature not stated; recombinant protein; protein details: MBP (pMAL c5x)
[2] = test system: MBP-BrpNAC895 (Brassica parachinensis); experiment: EMSA; conditions: EMSA/Gel-Shift kit (Beyotime) per manufacturer, pH and temperature not stated, recombinant protein, protein details: MBP (pMAL c5x)

Sequence	binding result [1]	binding result [2]	binding result ([2]; preincubated with increasing MBP-BrpABI449, 6 h at 4 C)
CATATCTTCGACACGTTACGTGCATTTCCCCAAGACAT (double strand) [BrpHMA2 promoter probe 3 (pF3 locus)]	binds	binds	–
GCTAGCACCTTCAGTAATGCACGTTAATAGACTTTTGGTT (double strand) [BrpHMA2 promoter probe 1 (pF1 locus)]	no binding	binds	binds more weakly
TATGCCTGCCTAAAACCGTGACCCATCGAACAAGTTCTCT (double strand) [BrpHMA2 promoter probe 2 (pF2 locus)]	binds	binds	–
